These are yes or no findings as the source states them, for the method shown. Some entries that bind do so weakly or less than the wild type.
Tests used:
[1] = target: T1, endothelial cell selective adhesion molecules (ESAM) (UniProt Q96AP7); assay: pull down, LC-MS/MS and western blot
T1 sequence (looked up): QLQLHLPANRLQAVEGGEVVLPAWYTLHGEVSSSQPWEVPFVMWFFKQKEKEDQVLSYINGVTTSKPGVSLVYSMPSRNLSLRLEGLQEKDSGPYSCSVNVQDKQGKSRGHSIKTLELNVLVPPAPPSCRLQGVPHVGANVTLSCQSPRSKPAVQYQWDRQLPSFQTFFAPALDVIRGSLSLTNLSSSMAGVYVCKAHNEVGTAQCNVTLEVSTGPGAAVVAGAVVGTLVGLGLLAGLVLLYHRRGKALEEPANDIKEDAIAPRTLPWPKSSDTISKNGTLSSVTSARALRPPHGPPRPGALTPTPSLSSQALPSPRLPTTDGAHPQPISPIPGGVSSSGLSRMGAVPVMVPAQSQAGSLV

[2] = target: T1, endothelial cell selective adhesion molecules (ESAM); assay: pull down, LC-MS/MS and western blot (FIG. 35)
[3] = target: T1, endothelial cell selective adhesion molecules (ESAM); assay: summary sentence of Example 5; pull down (FIG. 35)

Measured: binding

CKSGGAWCGFDPHGCCGNCGCLVGFCYGTGC (four native disulfide bonds: Cys I-IV, Cys II-VI, Cys III-VII and Cys V-VIII) [Ginsentide TP1]
binds: all assays above

From patent US20200277343A1
